PubChem BioAssay AID1259254, NCATS, 2017

- Purpose: 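Genome-wide screen for genes that prevent DNA re-replication in cancer cells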 (primary screen)
- Cells: human HCT116 colorectal cancer cells
- Reagent: single siRNA against human genes
- Time to read-out: 3 days
- Measurement: 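Imaged Hoechst DNA stain sorts each cell into a cycle phase by DNA amount; per plate, G2 fraction set to 0% for non-targeting and 100% for GMNN siRNA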
- Direction: G2 robust z-score and G2 cells, % of GMNN control: higher = more G2 cells, more excess DNA replication; raw share of cells in G2: higher = larger share of cells with G2 DNA content
- Hit rule: 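An siRNA counts as active if its G2 robust z-score lies at least 5 MADs above the screen median; here such calls match roughly 38% of GMNN control or more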
Shown is one part, drawn at random, of about 59,000 reagents tested. About 1,550 of them (2.6%) were called active. 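G2 share is only a proxy for re-replication; each gene was hit by three separate siRNAs, and active genes were retested.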 Raw values vary from plate to plate and are shown uncorrected. A number with no mark means an inactive call. Reagents against one gene are numbered here. The record does not give: the amount of reagent.

gene	reagent no.	G2 robust z-score	G2 cells, % of GMNN control	raw share of cells in G2 (%)
GPR39 (G protein-coupled receptor 39)	1	-1.32	-6.34	3.58
GPR39 (G protein-coupled receptor 39)	2	-0.657	-1.65	3.94
GPR39 (G protein-coupled receptor 39)	3	-0.946	-3.69	2.14
OIP5 (Opa interacting protein 5)	1	7.37 (active)	54.8	26.5
OIP5 (Opa interacting protein 5)	2	0.0628	3.41	5.54
OIP5 (Opa interacting protein 5)	3	-0.216	1.45	3.72
PXMP2 (peroxisomal membrane protein 2)	1	-0.576	-1.09	3.78
PXMP2 (peroxisomal membrane protein 2)	2	1.93	16.5	11
PXMP2 (peroxisomal membrane protein 2)	3	2.39	19.8	11.8
CTC1 (CST telomere replication complex component 1)	1	0.0261	3.15	5.75
CTC1 (CST telomere replication complex component 1)	2	0.0873	3.58	5.87
CTC1 (CST telomere replication complex component 1)	3	-0.804	-2.69	1.64
LMO3 (LIM domain only 3)	1	0.32	5.22	4.63
LMO3 (LIM domain only 3)	2	-1.18	-5.33	3.5
LMO3 (LIM domain only 3)	3	-0.591	-1.19	3.26
LYSMD4 (LysM domain containing 4)	1	-0.0638	2.52	4.67
LYSMD4 (LysM domain containing 4)	2	0.208	4.43	4.28
LYSMD4 (LysM domain containing 4)	3	2.27	18.9	9.66
WDR35 (WD repeat domain 35)	1	-1.13	-5.01	2.37
WDR35 (WD repeat domain 35)	2	-0.602	-1.27	3.85
WDR35 (WD repeat domain 35)	3	-0.32	0.718	3.26
KCNK16 (potassium two pore domain channel subfamily K member 16)	1	6.38 (active)	47.8	22.7
KCNK16 (potassium two pore domain channel subfamily K member 16)	2	2.15	18.1	10.9
KCNK16 (potassium two pore domain channel subfamily K member 16)	3	-1.32	-6.34	1.9
CYFIP1 (cytoplasmic FMR1 interacting protein 1)	1	2.49	20.5	10.9
CYFIP1 (cytoplasmic FMR1 interacting protein 1)	2	-0.19	1.63	4.7
CYFIP1 (cytoplasmic FMR1 interacting protein 1)	3	1.25	11.8	11.1
HCCS (holocytochrome c synthase)	1	-0.712	-2.04	3.45
HCCS (holocytochrome c synthase)	2	-0.964	-3.82	3.66
HCCS (holocytochrome c synthase)	3	-0.932	-3.59	4.32
NT5DC2 (5'-nucleotidase domain containing 2)	1	-1.02	-4.2	2.75
NT5DC2 (5'-nucleotidase domain containing 2)	2	-0.911	-3.44	3.07
NT5DC2 (5'-nucleotidase domain containing 2)	3	-0.904	-3.4	1.8
PCED1CP (PC-esterase domain containing 1C, pseudogene)	1	-0.734	-2.19	2.41
PCED1CP (PC-esterase domain containing 1C, pseudogene)	2	-0.318	0.729	3.28
PCED1CP (PC-esterase domain containing 1C, pseudogene)	3	1.05	10.3	7.67
RYK (receptor like tyrosine kinase)	1	1.35	12.5	9.73
RYK (receptor like tyrosine kinase)	2	-1.43	-7.09	3.02
RYK (receptor like tyrosine kinase)	3	-0.901	-3.37	2.84
RBM34 (RNA binding motif protein 34)	1	0.185	4.27	8.08
RBM34 (RNA binding motif protein 34)	2	-0.643	-1.55	3.64
RBM34 (RNA binding motif protein 34)	3	-0.407	0.105	3.9
ZYX (zyxin)	1	4.68	35.9	17.6
ZYX (zyxin)	2	0.987	9.91	9.78
ZYX (zyxin)	3	1.26	11.8	8.36
CCDC192 (coiled-coil domain containing 192)	1	-0.291	0.92	4.28
CCDC192 (coiled-coil domain containing 192)	2	4.97	37.9	15.5
CCDC192 (coiled-coil domain containing 192)	3	0.759	8.31	6.34
UTP18 (UTP18 small subunit processome component)	1	8.05 (active)	59.6	26.6
UTP18 (UTP18 small subunit processome component)	2	3.59	28.3	15.2
UTP18 (UTP18 small subunit processome component)	3	5.96 (active)	44.9	17.4
YKT6 (YKT6 vesicular SNARE protein)	1	-0.736	-2.21	2.79
YKT6 (YKT6 vesicular SNARE protein)	2	2.71	22	15.8
YKT6 (YKT6 vesicular SNARE protein)	3	0.485	6.38	6.01
DAO (D-amino acid oxidase)	1	3.82	29.8	15.9
DAO (D-amino acid oxidase)	2	-0.339	0.581	5.17
DAO (D-amino acid oxidase)	3	-1.25	-5.82	2.09
NCBP3 (nuclear cap binding subunit 3)	1	1.54	13.8	9.84
NCBP3 (nuclear cap binding subunit 3)	2	-0.824	-2.83	2.97
NCBP3 (nuclear cap binding subunit 3)	3	-0.32	0.713	3.36
SPATA2L (spermatogenesis associated 2 like)	1	-0.942	-3.66	2.62
SPATA2L (spermatogenesis associated 2 like)	2	0.535	6.73	5.34
SPATA2L (spermatogenesis associated 2 like)	3	-0.713	-2.05	1.22
DDX1 (DEAD-box helicase 1)	1	1.32	12.2	8.31
DDX1 (DEAD-box helicase 1)	2	1.13	10.9	8.98
DDX1 (DEAD-box helicase 1)	3	-1.02	-4.23	3.45
MAEA (macrophage erythroblast attacher, E3 ubiquitin ligase)	1	0.684	7.78	8.85
MAEA (macrophage erythroblast attacher, E3 ubiquitin ligase)	2	-1.17	-5.27	1.74
MAEA (macrophage erythroblast attacher, E3 ubiquitin ligase)	3	0.629	7.4	6.1

Individual results from above.
HCCS (holocytochrome c synthase) #1, G2 cells, % of GMNN control → -2.04
Under “G2 robust z-score”, LMO3 (LIM domain only 3) #3 reads -0.591
Value of LMO3 (LIM domain only 3) #2 under “G2 robust z-score”: -1.18
For “raw share of cells in G2 (%)”, OIP5 (Opa interacting protein 5) #1 shows 26.5 (active)
Value of ZYX (zyxin) #3 in “G2 robust z-score”: 1.26
Value for SPATA2L (spermatogenesis associated 2 like) #3 under “G2 robust z-score”: -0.713
